In publication PMC8657799:
Results are given in words; binding and its absence hold for the method and conditions named. In cells and extracts the contact can be indirect. Some results given as binding are weak or reduced against the parent protein; the word gives no strength.

The chains behind the UniProt entries cited, without tags or fusion partners. Where a name states a change or a piece, a line headed by the entry shows the natural chain unless it says otherwise.
UniProt Q96D31: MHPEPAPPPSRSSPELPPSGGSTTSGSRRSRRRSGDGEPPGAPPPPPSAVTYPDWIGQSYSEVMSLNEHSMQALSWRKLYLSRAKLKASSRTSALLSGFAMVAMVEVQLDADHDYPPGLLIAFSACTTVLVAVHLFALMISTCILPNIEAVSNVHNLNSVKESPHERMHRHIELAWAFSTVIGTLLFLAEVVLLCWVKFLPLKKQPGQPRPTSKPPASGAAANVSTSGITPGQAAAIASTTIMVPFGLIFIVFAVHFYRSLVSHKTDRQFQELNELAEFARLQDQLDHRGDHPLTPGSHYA

Target: T1, 3xHA-RHBDL2 (wild type, active) (mouse) (UniProt A2AGA4)
T1 sequence: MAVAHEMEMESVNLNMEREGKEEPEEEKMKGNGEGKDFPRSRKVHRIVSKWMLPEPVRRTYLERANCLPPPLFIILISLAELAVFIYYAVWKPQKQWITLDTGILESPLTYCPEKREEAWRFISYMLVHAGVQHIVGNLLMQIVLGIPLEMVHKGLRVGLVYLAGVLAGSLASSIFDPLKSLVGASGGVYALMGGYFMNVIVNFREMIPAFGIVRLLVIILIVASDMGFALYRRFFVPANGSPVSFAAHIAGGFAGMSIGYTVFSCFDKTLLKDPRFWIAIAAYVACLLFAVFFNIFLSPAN
Assay: co-IP; HA antibody-coupled beads, 2-3 h at 4°C, lysates of HEK293 cells co-expressing 3xHA-RHBDL2 (WT or SA) and V5-hOrai1 forms for 24 h; 1% Triton X-100, 150 mM NaCl, 50 mM Tris-HCl pH 7.4; blotted for V5 and HA; in Figure 7D cells were kept for 5 min before lysis in 2 mM Ca2+ or in Ca2+-free solution with 1 mM EGTA

| Substance | binding |
| --- | --- |
| V5-hOrai1 H134W (from UniProt Q96D31 1-301) | binds weakly |
| V5-hOrai1 G98S (from UniProt Q96D31 1-301) | binds |

Other lines, results leading:

| binding | Substance |
| --- | --- |
| binds weakly | V5-hOrai1 G98C (from UniProt Q96D31 1-301) |
| binds | V5-hOrai1 H134S (from UniProt Q96D31 1-301) |
| binds weakly | V5-hOrai1 R91W (from UniProt Q96D31 1-301) |
